Here are results for 1 substance from article PMC2840025.

This assay has as its target T1, EGFP fusion of AGS3 (Activator of G protein Signaling 3) (UniProt Q9R080).
T1 sequence: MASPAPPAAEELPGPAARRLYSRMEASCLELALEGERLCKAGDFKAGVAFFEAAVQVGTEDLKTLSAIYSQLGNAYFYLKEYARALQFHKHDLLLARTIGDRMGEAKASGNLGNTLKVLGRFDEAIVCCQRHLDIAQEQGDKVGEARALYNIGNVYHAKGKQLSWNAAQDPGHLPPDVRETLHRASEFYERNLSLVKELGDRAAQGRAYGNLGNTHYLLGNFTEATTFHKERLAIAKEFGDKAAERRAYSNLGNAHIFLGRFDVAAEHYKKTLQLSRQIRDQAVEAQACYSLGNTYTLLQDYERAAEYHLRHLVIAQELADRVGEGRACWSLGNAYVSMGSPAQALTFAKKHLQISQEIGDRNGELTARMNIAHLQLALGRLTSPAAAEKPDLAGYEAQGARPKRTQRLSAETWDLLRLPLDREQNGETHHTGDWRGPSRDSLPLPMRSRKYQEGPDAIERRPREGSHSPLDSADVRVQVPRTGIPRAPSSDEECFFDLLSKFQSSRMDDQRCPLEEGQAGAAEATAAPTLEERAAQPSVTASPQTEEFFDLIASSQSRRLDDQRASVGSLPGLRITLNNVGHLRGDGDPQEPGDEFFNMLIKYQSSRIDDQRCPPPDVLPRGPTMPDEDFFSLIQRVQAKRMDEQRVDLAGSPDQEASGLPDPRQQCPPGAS
Description: affinity purification with mass spectrometry; anti-GFP magnetic microbeads, Flp-In CV-1 stable cells, stringent wash (650 mM NaCl, 1% Igepal CA-630, 0.5% sodium deoxycholate, 0.1% SDS, 50 mM Tris-HCl pH 8.0); band excised from SDS-PAGE, tandem mass spectrometry.

These are yes or no findings as the source states them, for the method shown. Binding seen in cells or lysates may run through a third protein. A yes stands for co-enrichment or nearness to the bait. Other partners may have been found. Tags and fused reporters may be left off the sequences shown.

Turning to “USP9x (Ubiquitin Specific Protease 9x), endogenous in monkey cell lines (enzyme)”, the binding entry is “binds”.
